The values below come from US10064928B2, “Peptides and combination of peptides for use in immunotherapy against CLL and other cancers” (IMMATICS BIOTECHNOLOGIES GMBH, priority 2015, dated 2018).

For some of these results: For expression read-outs the peptide stands for its source gene, whose mRNA was measured; the gene is not named for every peptide.

Series [1] concerns other tumor types (e.g. non-Hodgkin lymphoma, lung cancer). Kind of series: Presentation of the peptides on additional tumor types (LC-MS, Tables 4A/4B, FIG. 1). The arrangement: species or system human. The conditions noted are these: for Other relevant organs/diseases: Table 4A: additional tumor types where the peptide was over-presented on more than 5% of the measured tumor samples, or presented on more than 5% with ratio of geometric means tumor vs normal tissues larger than 3; for Additional Entities: Table 4B: additional tumour types with over-presentation (including specific presentation) on more than 5% of the measured tumour samples, or presentation on more than 5% with ratio of geometric means tumour vs normal tissues larger than 3, extended normal tissue panel.

In series [2] the test system is CLL samples compared to a panel of normal tissues. Kind of series: Identification and label-free relative LC-MS quantitation of HLA-presented peptides (presentation profiles and scores). The conditions noted are these: presentation score; over-presentation on tumors (CLL samples) compared to a panel of normal tissues. More on the design: species or system human; key: very highly over-presented on tumors compared to a panel of normal tissues (+++); highly over-presented on tumors compared to a panel of normal tissues (++); over-presented on tumors compared to a panel of normal tissues (+).

Series [3] relates to NSCLC tumor samples. Kind of series: Absolute quantitation of TUMAP copies per cell by nanoLC-MS/MS. More on the design: species or system human. The conditions noted are these: median number of copies per cell.
In series [4] the test system is mRNA of source genes in tumors compared to a panel of normal tissues. Kind of series: Expression profiling of source genes by RNAseq (expression scores). The following applies: expression score of the source gene, tumors vs panel of normal tissues. The arrangement: species or system human; key: very highly over-expressed in tumors compared to a panel of normal tissues (+++); highly over-expressed in tumors compared to a panel of normal tissues (++); over-expressed in tumors compared to a panel of normal tissues (+).

Turning to “153 (SLLAELHVL; listed as Homo sapiens) [compound 153]”, in series [1], the Other relevant organs/diseases entry was “NHL”. The “Peptide Presentation” value in series [2] is reported as “++”. Besides, the “Copy Number Category” value in series [3] was “++ (>=100 = ++)”.
Take “221: peptide found in ORAI2 (gene looked up) (ALVSTIIMV; listed as Homo sapiens) [compound 221]”: the “Gene Expression” value in series [4] was “+”. Further, in series [1], the Other relevant organs/diseases entry is “NHL, AML” and the “Additional Entities” value was “Brain Cancer”. In addition, the “Peptide Presentation” value in series [2] is on record as “+”.
For the substance “108: peptide found in ATM (gene looked up) (VIYTLIHYI; listed as Homo sapiens) [compound 108]”, in series [4], the “Gene Expression” value was “+”. Besides, in series [1], the “Additional Entities” value is on record as “BRCA, Melanoma”. In addition, in series [2], the “Peptide Presentation” value is given as “+”.
Turning to “97: peptide found in CD37 (gene looked up) (LLFATQITL; listed as Homo sapiens) [compound 97]”, in series [4], the “Gene Expression” value is on record as “+++”. In addition, in series [1], the Other relevant organs/diseases result is given as “NHL”. In addition, the “Peptide Presentation” value in series [2] is “+”.
For “312: peptide found in MYO1G (gene looked up) (LLYNSTDPTL; listed as Homo sapiens) [compound 312]”, the “Gene Expression” value in series [4] is on record as “+”. In series [1], the Other relevant organs/diseases entry is recorded as “NHL” and the “Additional Entities” value is given as “Urinary Bladder Cancer”. The “Peptide Presentation” value in series [2] is reported as “+++”.
Take “117: peptide found in NUP210 (gene looked up) (LLILENILL; listed as Homo sapiens) [compound 117]”: the “Gene Expression” value in series [4] was “++”. In series [1], the Other relevant organs/diseases entry was “NHL, AML, Melanoma”. For the same substance, the “Peptide Presentation” value in series [2] is reported as “++”.
In the case of “251: peptide found in SP140 (gene looked up) (LLYDNVPGA; listed as Homo sapiens) [compound 251]”, the “Gene Expression” value in series [4] is reported as “+++”. For the same substance, the Other relevant organs/diseases entry in series [1] is reported as “NHL”. Further, in series [2], the “Peptide Presentation” value is listed as “+”.
Taken in the same sequence, the figures for “307: peptide found in PLCG2 (gene looked up) (LLLTKPTEA; listed as Homo sapiens) [compound 307]” were “++”, “NHL” and “++”.
Regarding “286: peptide found in FANCD2 (gene looked up) (FLLEDLSQKL; listed as Homo sapiens) [compound 286]”, the “Gene Expression” value in series [4] is “++”. In series [1], the Other relevant organs/diseases entry was “NHL” and the “Additional Entities” value is reported as “Uterine Cancer”. Also, in series [2], the “Peptide Presentation” value is on record as “+++”.
Consider “193: peptide found in TLR10 (gene looked up) (YLDLSNNRL; listed as Homo sapiens) [compound 193]”, for which the “Gene Expression” value in series [4] was “+”. The Other relevant organs/diseases entry in series [1] is reported as “NHL”. Further, the “Peptide Presentation” value in series [2] is on record as “+++”.
Consider “96: peptide found in CD37 (gene looked up) (ILIDKTSFV; listed as Homo sapiens) [compound 96]”, for which, in series [4], the “Gene Expression” value is given as “+++”. In addition, the Other relevant organs/diseases entry in series [1] was “NHL”. The “Peptide Presentation” value in series [2] is recorded as “+”.
“62 (GIIDGSPRL; listed as Homo sapiens) [compound 62]”: the Other relevant organs/diseases entry in series [1] is listed as “NHL”. In addition, the “Peptide Presentation” value in series [2] is “+”. For the same substance, in series [3], the “Copy Number Category” value is “+ (<100 = +)”.
Regarding “177: peptide found in PASK (gene looked up) (VLDDRELLL; listed as Homo sapiens) [compound 177]”, the “Gene Expression” value in series [4] is reported as “++”. Also, the Other relevant organs/diseases entry in series [1] is on record as “NHL”. Further, the “Peptide Presentation” value in series [2] was “+++”.
As for “105: peptide found in ATM (gene looked up) (KLMNDIADI; listed as Homo sapiens) [compound 105]”, the “Gene Expression” value in series [4] was “++”. Besides, the Other relevant organs/diseases result in series [1] is “NHL”. In addition, the “Peptide Presentation” value in series [2] is recorded as “+++”.
Consider “98: peptide found in CD37 (gene looked up) (SLIKYFLFV; listed as Homo sapiens) [compound 98]”, for which, in series [4], the “Gene Expression” value is on record as “+++”. In series [1], the Other relevant organs/diseases result was “NHL”. The “Peptide Presentation” value in series [2] was “+++”.
Take “380: peptide found in SYK (gene looked up) (YLDRKLLTL; listed as Homo sapiens) [compound 380]”: in series [4], the “Gene Expression” value is recorded as “++”. The Other relevant organs/diseases entry in series [1] is reported as “NHL”. Moreover, the “Peptide Presentation” value in series [2] was “+”.
Turning to “146: peptide found in SMCHD1 (gene looked up) (SIIEGPIIKL; listed as Homo sapiens) [compound 146]”, the “Gene Expression” value in series [4] is listed as “+++”. For the same substance, in series [1], the Other relevant organs/diseases result is “NHL, Urinary bladder cancer” and the “Additional Entities” value is reported as “HNSCC”. In addition, the “Peptide Presentation” value in series [2] is “+++”.
In the case of “308: peptide found in PLCG2 (gene looked up) (SLYDVSRMYV; listed as Homo sapiens) [compound 308]”, the “Gene Expression” value in series [4] was “+”. Further, in series [1], the Other relevant organs/diseases entry is on record as “NHL”. For the same substance, the “Peptide Presentation” value in series [2] is reported as “+++”.
Regarding “119: peptide found in NUP210 (gene looked up) (VLPAEFFEV; listed as Homo sapiens) [compound 119]”, the “Gene Expression” value in series [4] is “++”. In addition, in series [1], the Other relevant organs/diseases result was “NHL, AML, Urinary bladder cancer, Uterine Cancer” and the “Additional Entities” value is “SCLC”. Besides, in series [2], the “Peptide Presentation” value is recorded as “+++”.
For “149: peptide found in LYN (gene looked up) (SLDNGGYYI; listed as Homo sapiens) [compound 149]”, the “Gene Expression” value in series [4] is on record as “+++”. Further, the Other relevant organs/diseases result in series [1] was “NHL”. Besides, in series [2], the “Peptide Presentation” value is “+++”.
With “5: peptide found in MAP3K1 (gene looked up) (ALIFKIASA; listed as Homo sapiens) [compound 5]”, the “Gene Expression” value in series [4] is recorded as “+++”. Moreover, in series [1], the Other relevant organs/diseases result is reported as “AML, BRCA” and the “Additional Entities” value is reported as “Uterine Cancer”. In addition, the “Peptide Presentation” value in series [2] is “+++”.
In the case of “195: peptide found in SYK (gene looked up) (YLGGFALSV; listed as Homo sapiens) [compound 195]”, in series [4], the “Gene Expression” value is recorded as “++”. Moreover, in series [1], the Other relevant organs/diseases result is “NHL, AML”. In series [2], the “Peptide Presentation” value is given as “+++”.
For the substance “300: peptide found in NUP210 (gene looked up) (ILLNPAYDVYL; listed as Homo sapiens) [compound 300]”, in series [4], the “Gene Expression” value is “++”. Also, the Other relevant organs/diseases result in series [1] is recorded as “NHL, Melanoma”. For the same substance, the “Peptide Presentation” value in series [2] is given as “++”.
Consider “116: peptide found in NUP210 (gene looked up) (LLIGATMQV; listed as Homo sapiens) [compound 116]”, for which the “Gene Expression” value in series [4] is “+”. Besides, the Other relevant organs/diseases result in series [1] is “SCLC, NHL, AML”. The “Peptide Presentation” value in series [2] was “+++”.
Taken in the same sequence, the figures for “337: peptide found in IKZF3 (gene looked up) (YMYEKESEL; listed as Homo sapiens) [compound 337]” were “+++”, “NHL” and “++”.
Consider “294: peptide found in NCOA3 (gene looked up) (ALLDQLHTLL; listed as Homo sapiens) [compound 294]”, for which the “Gene Expression” value in series [4] is “+”. In series [1], the Other relevant organs/diseases entry was “NHL” and the “Additional Entities” value is “AML”. Also, the “Peptide Presentation” value in series [2] is on record as “+”.
For “330: peptide found in BTK (gene looked up) (VLMWEIYSL; listed as Homo sapiens) [compound 330]”, the “Gene Expression” value in series [4] is “++”. For the same substance, the Other relevant organs/diseases result in series [1] is “NHL”. Also, the “Peptide Presentation” value in series [2] is given as “++”.
